Data as given in US20180339024A1, “PEPTIDES WITH ANTI-ANGIOGENIC, ANTI-LYMPHANGIOGENIC, AND ANTI-EDEMIC PROPERTIES AND NANOPARTICLE FORMULATIONS” (Asclepix Therapeutics, LLC, priority 2015, published 2018).
Results are given in words; binding and its absence hold for the method and conditions named. Some results given as binding are weak or reduced against the parent protein; the word gives no strength.

The chains behind the UniProt entries cited, without tags or fusion partners. Where a name states a change or a piece, a line headed by the entry shows the natural chain unless it says otherwise.
UniProt P08648: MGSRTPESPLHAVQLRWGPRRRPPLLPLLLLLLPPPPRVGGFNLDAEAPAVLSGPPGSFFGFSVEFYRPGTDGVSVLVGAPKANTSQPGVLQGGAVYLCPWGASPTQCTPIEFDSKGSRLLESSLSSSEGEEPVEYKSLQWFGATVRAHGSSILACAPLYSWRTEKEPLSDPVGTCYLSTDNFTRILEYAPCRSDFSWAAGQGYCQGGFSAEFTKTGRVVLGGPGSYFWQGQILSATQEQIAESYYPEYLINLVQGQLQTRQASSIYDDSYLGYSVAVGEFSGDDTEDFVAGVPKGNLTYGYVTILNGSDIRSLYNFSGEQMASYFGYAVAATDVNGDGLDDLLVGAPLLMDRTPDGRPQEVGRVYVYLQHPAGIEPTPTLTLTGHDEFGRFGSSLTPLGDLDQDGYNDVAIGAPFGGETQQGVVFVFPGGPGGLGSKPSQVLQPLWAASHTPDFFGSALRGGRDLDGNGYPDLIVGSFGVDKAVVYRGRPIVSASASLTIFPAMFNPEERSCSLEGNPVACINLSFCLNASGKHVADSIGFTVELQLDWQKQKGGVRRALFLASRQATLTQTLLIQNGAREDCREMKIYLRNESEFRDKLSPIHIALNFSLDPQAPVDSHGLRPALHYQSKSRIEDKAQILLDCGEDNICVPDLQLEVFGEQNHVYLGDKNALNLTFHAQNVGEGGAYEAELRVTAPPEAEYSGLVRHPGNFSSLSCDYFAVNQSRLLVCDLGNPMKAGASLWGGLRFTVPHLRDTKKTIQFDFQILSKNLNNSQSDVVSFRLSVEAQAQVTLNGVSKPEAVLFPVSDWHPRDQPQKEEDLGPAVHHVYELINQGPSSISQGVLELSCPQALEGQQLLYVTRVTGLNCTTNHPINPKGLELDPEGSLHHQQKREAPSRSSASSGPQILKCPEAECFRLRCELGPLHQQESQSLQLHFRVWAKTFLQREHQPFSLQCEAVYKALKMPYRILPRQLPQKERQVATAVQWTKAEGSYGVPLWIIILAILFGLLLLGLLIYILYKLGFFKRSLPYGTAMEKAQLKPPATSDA
UniProt P06756: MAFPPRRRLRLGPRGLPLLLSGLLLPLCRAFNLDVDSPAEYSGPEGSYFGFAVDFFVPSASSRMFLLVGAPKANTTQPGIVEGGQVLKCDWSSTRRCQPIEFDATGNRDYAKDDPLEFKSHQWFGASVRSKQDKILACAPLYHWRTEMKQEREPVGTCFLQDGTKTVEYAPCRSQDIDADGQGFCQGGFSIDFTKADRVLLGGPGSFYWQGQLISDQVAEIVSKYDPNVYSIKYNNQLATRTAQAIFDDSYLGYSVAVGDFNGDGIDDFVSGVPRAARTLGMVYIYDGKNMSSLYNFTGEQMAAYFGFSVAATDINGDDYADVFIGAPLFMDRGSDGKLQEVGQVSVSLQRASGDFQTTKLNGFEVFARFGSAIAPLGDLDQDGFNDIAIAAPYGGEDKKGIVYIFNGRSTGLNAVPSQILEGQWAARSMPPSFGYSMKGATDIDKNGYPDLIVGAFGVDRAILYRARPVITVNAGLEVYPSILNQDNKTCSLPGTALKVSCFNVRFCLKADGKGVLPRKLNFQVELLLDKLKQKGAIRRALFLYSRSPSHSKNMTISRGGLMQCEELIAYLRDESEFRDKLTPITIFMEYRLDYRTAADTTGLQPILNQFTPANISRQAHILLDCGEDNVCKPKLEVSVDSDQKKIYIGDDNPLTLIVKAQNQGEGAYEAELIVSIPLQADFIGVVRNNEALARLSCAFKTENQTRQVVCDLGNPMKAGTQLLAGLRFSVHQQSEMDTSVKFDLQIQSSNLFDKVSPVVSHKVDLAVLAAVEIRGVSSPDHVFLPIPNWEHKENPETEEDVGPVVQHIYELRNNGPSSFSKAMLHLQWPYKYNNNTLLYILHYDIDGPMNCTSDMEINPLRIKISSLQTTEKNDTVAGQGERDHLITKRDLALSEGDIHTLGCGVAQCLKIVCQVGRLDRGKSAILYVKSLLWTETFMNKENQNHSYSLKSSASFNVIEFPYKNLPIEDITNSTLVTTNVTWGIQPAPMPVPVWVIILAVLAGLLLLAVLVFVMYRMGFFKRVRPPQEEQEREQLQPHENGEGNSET

Experiments:
[1] = target: integrin α5β1 (UniProt P08648); assay: target identification; method not described
[2] = target: integrin αVβ3 (UniProt P06756); assay: target identification; method not described

Binder: LRRFSTAPFAFIDINDVINF (amine at the N-terminus and an amide at the C-terminus) [P07]
- binding [1]: binds
- binding [2]: binds
